Data: patent US9265845B2, “Imaging methods using engineered integrin binding peptides” (The Board of Trustees of the Leland Stanford Junior …, priority 2006, dated 2016)
Not every detail of the peptide structures is certain; ends, links or a residue may be inferred. Positions of bridges follow the written chain, without caps; N, C: chain ends. Residues, ends and D or L forms follow the SMILES beside them.

How the values were obtained:
[1] = biological target: T1, αvβ3 integrin on U87MG glioblastoma cells (Homo sapiens, UniProt P05106+P06756); assay: 125I-echistatin competition binding to U87MG glioblastoma cells; details: for IC50: synthesized Agouti peptides, read-out: IC50, competing off binding of 125I-echistatin
T1 construct: host or cells: U87MG glioblastoma cells
Protocol: FIG. 9 is a graph showing normalized competition plotted against peptide concentration in an integrin-binding assay on U87MG glioblastoma cells.
U87MG glioblastoma cells, which express ˜10^5 αvβ3 integrin receptors per cell, were used for these studies. […] An EETI-based polypeptide with a scrambled RDG amino acid sequence, designated FN-RDG, served as a negative control.
Half-maximal inhibitory concentrations (IC50) […] of data measured on at least three separate days. Data for unlabeled and Cy5.5-labeled peptides are shown. Site-specific labeling of RGD miniproteins with a near-infrared optical imaging probe: The free N-terminal amine of our polypeptides was used for site-specific attachment of Cy5.5, a near infrared imaging probe.
An αvβ3 integrin receptor binding assay is performed to determine the relative affinities of the mock-PET tracers compared to their unlabeled polypeptides. Briefly, 2×10^5 U87MG glioblastoma cells are incubated with 0.06 nM ^125I-echistatin in integrin binding buffer (25 mM Tris-HCl, pH 7.4, 150 mM NaCl2 1 mM CaCl2 1 mM MgCl2, 1 mM MnCl2, 0.1% BSA), in the presence of increasing concentrations of mock-PET tracers at room temperature. After incubation for 3 h, cells are pelleted by centrifugation at 1500 RPM and washed three times in binding buffer to remove unbound ligands. The radioactivity remaining in the cell pellet is measured by γ counting. IC50 values are determined by plotting the % competition and using a four-point binding equation (Kaleidagraph) to fit the data.

[2] = biological target: T1, αvβ3 integrin on U87MG glioblastoma cells; assay: Competition binding between synthetic and recombinant AgRP peptide 7C on U87MG cells, flow cytometry; details: 10^5 U87MG cells, anti-FLAG detection; read-out: IC50, synthetic peptide competing off recombinant AgRP peptide 7C (20 nM)

With `CSCC[C@@H]1NC(=O)CNC(=O)[C@H](CC(=O)O)NC(=O)CNC(=O)[C@H](CCCNC(=N)N)NC(=O)[C@H](Cc2ccc(O)cc2)NC(=O)[C@H](CCC(N)=O)NC(=O)[C@@H]2CSSC[C@H](NC(=O)[C@H](Cc3c[nH]cn3)NC(=O)[C@H](CCCCN)NC1=O)C(=O)N[C@@H](Cc1ccc(O)cc1)C(=O)N[C@H](C(=O)N[C@@H](CCCNC(=N)N)C(=O)O)CSSC[C@@H]1NC(=O)[C@@H]3CCCN3C(=O)[C@H](C(C)C)NC(=O)[C@H](CCC(N)=O)NC(=O)[C@H](CCC(N)=O)NC(=O)CNC(=O)[C@H](CC(C)C)NC(=O)[C@@H]3CSSC[C@H](NC(=O)[C@H]([C@@H](C)O)NC(=O)[C@H](C)NC(=O)[C@H](C)NC(=O)[C@@H]4CCCN4C(=O)[C@H](CC(=O)O)NC(=O)[C@H](CSSC[C@H](NC(=O)CN)C(=O)N[C@@H](C(C)C)C(=O)N[C@@H](CCCNC(=N)N)C(=O)N[C@@H](CC(C)C)C(=O)N[C@@H](Cc4c[nH]cn4)C(=O)N[C@@H](CCC(=O)O)C(=O)N[C@@H](CO)C(=O)N3)NC1=O)C(=O)N[C@@H](Cc1ccc(O)cc1)C(=O)N2` [3F] (H-GCVRLHESCLGQQVPCCDPAATCYCQYRGDGMKHCYCR-OH; disulfide 2-17, 9-23, 16-37, 25-35 (inferred); N-terminus and C-terminus assumed) the IC50 [1] was 880 ± 340 nM.
For `CC(C)C[C@@H]1NC(=O)[C@@H]2CSSC[C@@H]3NC(=O)[C@H]([C@@H](C)O)NC(=O)[C@H](C)NC(=O)[C@H](C)NC(=O)[C@@H]4CCCN4C(=O)[C@H](CC(=O)O)NC(=O)[C@H](CSSC[C@H](NC(=O)CN)C(=O)N[C@@H](C(C)C)C(=O)N[C@@H](CCCNC(=N)N)C(=O)N[C@@H](CC(C)C)C(=O)N[C@@H](Cc4c[nH]cn4)C(=O)N[C@@H](CCC(=O)O)C(=O)N[C@@H](CO)C(=O)N2)NC(=O)[C@H](CSSC[C@@H](C(=O)N[C@@H](CCCNC(=N)N)C(=O)O)NC(=O)[C@H](Cc2ccc(O)cc2)NC(=O)[C@@H]2CSSC[C@H](NC(=O)[C@H](Cc4ccc(O)cc4)NC3=O)C(=O)N[C@@H](Cc3ccc(O)cc3)C(=O)NCC(=O)N[C@@H](CCCNC(=N)N)C(=O)NCC(=O)N[C@@H](CC(=O)O)C(=O)N[C@@H](CC(N)=O)C(=O)N[C@@H](CC(=O)O)C(=O)N[C@@H](CC(C)C)C(=O)N[C@@H](CCCNC(=N)N)C(=O)N2)NC(=O)[C@@H]2CCCN2C(=O)[C@H](C(C)C)NC(=O)[C@H](CCC(N)=O)NC(=O)[C@H](CCC(N)=O)NC(=O)CNC1=O` [7C] (H-GCVRLHESCLGQQVPCCDPAATCYCYGRGDNDLRCYCR-OH; disulfide 2-17, 9-23, 16-37, 25-35), the “binding to U87MG cells / competition with 125I-echistatin, in words” value [1] was “showed better binding than 3F, 6E or 6F”, the IC50 [1] was 23 ± 4 nM and the IC50 [2] was 22 ± 3 nM.
